From the supplement of paper PMC7411640
This is one part of the list. Single values are uncertain here, since repeats match poorly.

System: MDA-MB-468
Experiment: phospho-S6 immunofluorescence (DAPI-normalised), per-plate z-score; higher = higher phospho-S6 signal (less pathway suppression)
Conditions: 24 h
Protocol: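 GPCR-targeted compound library (MedChemExpress HY-L006) tested on MDA-MB-468 PTEN-null TNBC cells in 384-well plates at 0.1, 1 or 10 uM, combined with vehicle, GDC0941 450 nM or lapatinib 1 uM, for 24 h. Phospho-S6 (S240/244) immunofluorescence normalised to DAPI and expressed as a per-plate z-score; values are the mean of biological triplicates.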

[1] = compound 0.1 µM, co-treatment: GDC0941 450 nM
[2] = compound 0.1 µM, co-treatment: lapatinib 1 uM
[3] = compound 0.1 µM, co-treatment: vehicle
[4] = compound 1 µM, co-treatment: GDC0941 450 nM
[5] = compound 1 µM, co-treatment: lapatinib 1 uM
[6] = compound 1 µM, co-treatment: vehicle
[7] = compound 10 µM, co-treatment: GDC0941 450 nM
[8] = compound 10 µM, co-treatment: lapatinib 1 uM
[9] = compound 10 µM, co-treatment: vehicle

SMILES: CN(C)CC[C@@H](c1ccc(Cl)cc1)c1ccccn1 [Dexchlorpheniramine (maleate)]
- phospho-S6 immunofluorescence (z-score) [1]: -0.31
- phospho-S6 immunofluorescence (z-score) [2]: -1.72
- phospho-S6 immunofluorescence (z-score) [3]: -0.71
- phospho-S6 immunofluorescence (z-score) [4]: -0.5
- phospho-S6 immunofluorescence (z-score) [5]: -1.82
- phospho-S6 immunofluorescence (z-score) [6]: -0.44
- phospho-S6 immunofluorescence (z-score) [7]: 0.61
- phospho-S6 immunofluorescence (z-score) [8]: -0.08
- phospho-S6 immunofluorescence (z-score) [9]: -0.33

SMILES: Cc1cccn2c(=O)c(-c3nnn[nH]3)cnc12 [Pemirolast (potassium)]
- phospho-S6 immunofluorescence (z-score) [1]: -0.69
- phospho-S6 immunofluorescence (z-score) [2]: -0.66
- phospho-S6 immunofluorescence (z-score) [3]: -0.93
- phospho-S6 immunofluorescence (z-score) [4]: 0.65
- phospho-S6 immunofluorescence (z-score) [5]: -0.06
- phospho-S6 immunofluorescence (z-score) [6]: -1.05
- phospho-S6 immunofluorescence (z-score) [7]: -0.3
- phospho-S6 immunofluorescence (z-score) [8]: -0.65
- phospho-S6 immunofluorescence (z-score) [9]: -1.33

SMILES: CC1CCN(CC[C@H]2CCCN2S(=O)(=O)c2cccc(O)c2)CC1
- phospho-S6 immunofluorescence (z-score) [1]: 0.56
- phospho-S6 immunofluorescence (z-score) [2]: 1.21
- phospho-S6 immunofluorescence (z-score) [3]: 0.14
- phospho-S6 immunofluorescence (z-score) [4]: 0.5
- phospho-S6 immunofluorescence (z-score) [5]: -1.11
- phospho-S6 immunofluorescence (z-score) [6]: -0.69
- phospho-S6 immunofluorescence (z-score) [7]: 0.86
- phospho-S6 immunofluorescence (z-score) [8]: 0.2
- phospho-S6 immunofluorescence (z-score) [9]: 0.48

SMILES: OCCOCCN1CCN(Cc2cccc(Oc3ccccc3)c2)CC1
- phospho-S6 immunofluorescence (z-score) [1]: -1.45
- phospho-S6 immunofluorescence (z-score) [2]: -0.24
- phospho-S6 immunofluorescence (z-score) [3]: -0.94
- phospho-S6 immunofluorescence (z-score) [4]: -1.1
- phospho-S6 immunofluorescence (z-score) [5]: 0.99
- phospho-S6 immunofluorescence (z-score) [6]: 0.01
- phospho-S6 immunofluorescence (z-score) [7]: -0.36
- phospho-S6 immunofluorescence (z-score) [8]: 0.35
- phospho-S6 immunofluorescence (z-score) [9]: -1.04
